doi:10.1101/2021.06.01.446555
No constants are given. Whether binding was seen depends on the method and setting. Binding seen in cells or lysates may run through a third protein. Here binding means that the protein was enriched with, or labelled near, the bait; the list need not be complete.

By UniProt entry, the sequences of proteins in these tests, tags left out.
UniProt P0DTC3, whole entry: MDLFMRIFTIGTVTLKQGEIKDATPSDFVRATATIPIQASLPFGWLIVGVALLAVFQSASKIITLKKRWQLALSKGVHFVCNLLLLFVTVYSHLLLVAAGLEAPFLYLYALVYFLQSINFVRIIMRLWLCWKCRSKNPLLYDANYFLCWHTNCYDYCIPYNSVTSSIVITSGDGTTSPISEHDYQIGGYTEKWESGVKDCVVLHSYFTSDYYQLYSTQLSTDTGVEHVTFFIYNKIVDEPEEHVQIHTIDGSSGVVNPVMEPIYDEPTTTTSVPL

B1: DHCR7 (protein, UniProt Q9UBM7 1-475)
chain: MAAKSQPNIPKAKSLDGVTNDRTASQGQWGRAWEVDWFSLASVIFLLLFAPFIVYYFIMACDQYSCALTGPVVDIVTGHARLSDIWAKTPPITRKAAQLYTLWVTFQVLLYTSLPDFCHKFLPGYVGGIQEGAVTPAGVVNKYQINGLQAWLLTHLLWFANAHLLSWFSPTIIFDNWIPLLWCANILGYAVSTFAMVKGYFFPTSARDCKFTGNFFYNYMMGIEFNPRIGKWFDFKLFFNGRPGIVAWTLINLSFAAKQRELHSHVTNAMVLVNVLQAIYVIDFFWNETWYLKTIDICHDHFGWYLGWGDCVWLPYLYTLQGLYLVYHPVQLSTPHAVGVLLLGLVGYYIFRVANHQKDLFRRTDGRCLIWGRKPKVIECSYTSADGQRHHSKLLVSGFWGVARHFNYVGDLMGSLAYCLACGGGHLLPYFYIIYMAILLTHRCLRDEHRCASKYGRDWERYTAAVPYRLLPGIF
B2: VMA21 (protein, UniProt Q3ZAQ7 1-101)
chain: MERPDKAALNALQPPEFRNESSLASTLKTLLFFTALMITVPIGLYFTTKSYIFEGALGMSNRDSYFYAAIVAVVAVHVVLALFVYVAWNEGSRQWREGKQD
B3: USE1 (protein, UniProt Q9NZ43 1-259)
chain: MAASRLELNLVRLLSRCEAMAAEKRDPDEWRLEKYVGALEDMLQALKVHASKPASEVINEYSWKVDFLKGMLQAEKLTSSSEKALANQFLAPGRVPTTARERVPATKTVHLQSRARYTSEMRSELLGTDSAEPEMDVRKRTGVAGSQPVSEKQLAAELDLVLQRHQNLQEKLAEEMLGLARSLKTNTLAAQSVIKKDNQTLSHSLKMADQNLEKLKTESERLEQHTQKSVNWLLWAMLIIVCFIFISMILFIRIMPKLK
B4: TMEM165 (protein, UniProt Q9HC07 34-324)
chain: GPDEDLSHRNKEPPAPAQQLQPQPVAVQGPEPARVEKIFTPAAPVHTNKEDPATQTNLGFIHAFVAAISVIIVSELGDKTFFIAAIMAMRYNRLTVLAGAMLALGLMTCLSVLFGYATTVIPRVYTYYVSTVLFAIFGIRMLREGLKMSPDEGQEELEEVQAELKKKDEEFQRTKLLNGPGDVETGTSITVPQKKWLHFISPIFVQALTLTFLAEWGDRSQLTTIVLAAREDPYGVAVGGTVGHCLCTGLAVIGGRMIAQKISVRTVTIIGGIVFLAFAFSALFISPDSGF
B5: JAM3 (protein, UniProt Q9BX67 32-310)
chain: VNLKSSNRTPVVQEFESVELSCIITDSQTSDPRIEWKKIQDEQTTYVFFDNKIQGDLAGRAEILGKTSLKIWNVTRRDSALYRCEVVARNDRKEIDEIVIELTVQVKPVTPVCRVPKAVPVGKMATLHCQESEGHPRPHYSWYRNDVPLPTDSRANPRFRNSSFHLNSETGTLVFTAVHKDDSGQYYCIASNDAGSARCEEQEMEVYDLNIGGIIGGVLVVLAVLALITLGICCAYRRGYFINNKQDGESYKNPGKPDGVNYIRTDEEGDFRHKSSFVI
B6: BET1 (protein, UniProt O15155 1-118)
chain: MRRAGLGEGVPPGNYGNYGYANSGYSACEEENERLTESLRSKVTAIKSLSIEIGHEVKTQNKLLAEMDSQFDSTTGFLGKTMGKLKILSRGSQTKLLCYMMLFSLFVFFIIYWIIKLR
B7: TMEM110 (protein, UniProt Q86TL2 1-294)
chain: MQGPAGNASRGLPGGPPSTVASGAGRCESGALMHSFGIFLQGLLGVVAFSTLMLKRFREPKHERRPWRIWFLDTSKQAIGMLFIHFANVYLADLTEEDPCSLYLINFLLDATVGMLLIYVGVRAVSVLVEWQQWESLRFGEYGDPLQCGAWVGQCALYIVIMIFEKSVVFIVLLILQWKKVALLNPIENPDLKLAIVMLIVPFFVNALMFWVVDNFLMRKGKTKAKLEERGANQDSRNGSKVRYRRAASHEESESEILISADDEMEESDVEEDLRRLTPLKPVKKKKHRFGLPV
B8: CLCC1 (protein, UniProt Q96S66 19-551)
chain: HDDDWIDPTDMLNYDAASGTMRKSQAKYGISGEKDVSPDLSCADEISECYHKLDSLTYKIDECEKKKREDYESQSNPVFRRYLNKILIEAGKLGLPDENKGDMHYDAEIILKRETLLEIQKFLNGEDWKPGALDDALSDILINFKFHDFETWKWRFEDSFGVDPYNVLMVLLCLLCIVVLVATELWTYVRWYTQLRRVLIISFLFSLGWNWMYLYKLAFAQHQAEVAKMEPLNNVCAKKMDWTGSIWEWFRSSWTYKDDPCQKYYELLLVNPIWLVPPTKALAVTFTTFVTEPLKHIGKGTGEFIKALMKEIPALLHLPVLIIMALAILSFCYGAGKSVHVLRHIGGPESEPPQALRPRDRRRQEEIDYRPDGGAGDADFHYRGQMGPTEQGPYAKTYEGRREILRERDVDLRFQTGNKSPEVLRAFDVPDAEAREHPTVVPSHKSPVLDTKPKETGGILGEGTPKESSTESSQSAKPVSGQDTSGNTEGSPAAEKAQLKSEAAGSPDQGSTYSPARGVAGPRGQDPVSSPCG
B9: SCD5 (protein, UniProt Q86SK9 1-330)
chain: MPGPATDAGKIPFCDAKEEIRAGLESSEGGGGPERPGARGQRQNIVWRNVVLMSLLHLGAVYSLVLIPKAKPLTLLWAYFCFLLAALGVTAGAHRLWSHRSYRAKLPLRIFLAVANSMAFQNDIFEWSRDHRAHHKYSETDADPHNARRGFFFSHIGWLFVRKHRDVIEKGRKLDVTDLLADPVVRIQRKYYKISVVLMCFVVPTLVPWYIWGESLWNSYFLASILRYTISLNISWLVNSAAHMYGNRPYDKHISPRQNPLVALGAIGEGFHNYHHTFPFDYSASEFGLNFNPTTWFIDFMCWLGLATDRKRATKPMIEARKARTGDSSA
B10: VPS16, Q9H269 1-839 (protein)
chain: MDCYTANWNPLGDSAFYRKYELYSMDWDLKEELRDCLVAAAPYGGPIALLRNPWRKEKAASVRPVLDIYSASGMPLASLLWKSGPVVSLGWSAEEELLCVQEDGAVLVYGLHGDFRRHFSMGNEVLQNRVLDARIFHTEFGSGVAILTGAHRFTLSANVGDLKLRRMPEVPGLQSAPSCWTVLCQDRVAHILLAVGPDLYLLDHAACSAVTPPGLAPGVSSFLQMAVSFTYRHLALFTDTGYIWMGTASLKEKLCEFNCNIRAPPKQMVWCSRPRSKERAVVVAWERRLMVVGDAPESIQFVLDEDSYLVPELDGVRIFSRSTHEFLHEVPAASEEIFKIASMAPGALLLEAQKEYEKESQKADEYLREIQELGQLTQAVQQCIEAAGHEHQPDMQKSLLRAASFGKCFLDRFPPDSFVHMCQDLRVLNAVRDYHIGIPLTYSQYKQLTIQVLLDRLVLRRLYPLAIQICEYLRLPEVQGVSRILAHWACYKVQQKDVSDEDVARAINQKLGDTPGVSYSDIAARAYGCGRTELAIKLLEYEPRSGEQVPLLLKMKRSKLALSKAIESGDTDLVFTVLLHLKNELNRGDFFMTLRNQPMALSLYRQFCKHQELETLKDLYNQDDNHQELGSFHIRASYAAEERIEGRVAALQTAADAFYKAKNEFAAKATEDQMRLLRLQRRLEDELGGQFLDLSLHDTVTTLILGGHNKRAEQLARDFRIPDKRLWWLKLTALADLEDWEELEKFSKSKKSPIGYLPFVEICMKQHNKYEAKKYASRVGPEQKVKALLLVGDVAQAADVAIEHRNEAELSLVLSHCTGATDGATADKIQRARAQAQKK

Each binder was assayed against ORF3a-linker-GFP (SARS-CoV-2 ORF3a tagged with GFP) (SARS-CoV-2) (UniProt P0DTC3) (assay: proximity labelling). Details: not given.

Which binding does the source give for B1 here?
The binding was “binds”.

With B2 as the binder, how does the binding read?
The binding was “binds”.

With B3 as the binder, how does the binding read?
Its binding is “binds”.

For B4, which binding is on record?
Its binding is “binds”.

B5 was tested. Which binding did it give?
Its binding is “binds”.

With B6 as the binder, how does the binding read?
Its binding is “binds”.

For B7, which binding is on record?
The binding was “binds”.

B8 was tested. Which binding did it give?
The binding was “binds”.

With B9 as the binder, how does the binding read?
Its binding is “binds”.

Each binder was assayed against ORF3a-linker-GFP (SARS-CoV-2 ORF3a tagged with GFP) (SARS-CoV-2), P0DTC3 (assay: proximity labelling). Details: remark: other sources report otherwise.

How did the binding turn out when B10 was run?
The binding was “binds”.
